In PMC11006408 one finds binding data, which are given here for two molecules.

These are yes or no findings as the source states them, for the method shown. Binding seen in cells or lysates may run through a third protein. Some results given as binding are weak or reduced against the parent protein; the word gives no strength. Where a sequence is shown, tags or fusion partners need not be part of it.

For one test, the target named is T1, human Fuzzy-FLAG (human) (UniProt Q9BT04).
T1 sequence: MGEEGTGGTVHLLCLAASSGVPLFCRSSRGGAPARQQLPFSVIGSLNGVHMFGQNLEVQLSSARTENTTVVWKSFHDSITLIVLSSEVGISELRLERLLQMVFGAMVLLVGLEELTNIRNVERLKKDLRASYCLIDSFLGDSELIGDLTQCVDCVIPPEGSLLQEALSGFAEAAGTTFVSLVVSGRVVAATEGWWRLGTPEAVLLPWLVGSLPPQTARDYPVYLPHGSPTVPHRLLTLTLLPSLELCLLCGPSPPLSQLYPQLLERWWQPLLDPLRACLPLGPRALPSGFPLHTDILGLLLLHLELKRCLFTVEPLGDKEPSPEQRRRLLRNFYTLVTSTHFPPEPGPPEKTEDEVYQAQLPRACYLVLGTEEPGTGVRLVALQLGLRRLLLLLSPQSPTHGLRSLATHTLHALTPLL
Briefly: co-IP; HEK293T cells co-transfected with Fuzzy-Flag and p190A-GFP cDNA; lysis in 50 mM HEPES pH 7.5, 150 mM NaCl, 0.5% Triton X-100; lysate incubated overnight at 4°C with anti-p190A RhoGAP or anti-FLAG antibody, protein A/G or protein A agarose; washes with 200 mM and 500 mM NaCl; western blot with anti-FLAG or anti-p190A. Background: Immunoblotting shows a protein as a band on a membrane.

The target of another test is T2, human GFP-p190A (human) (UniProt Q9NRY4).
T2 sequence: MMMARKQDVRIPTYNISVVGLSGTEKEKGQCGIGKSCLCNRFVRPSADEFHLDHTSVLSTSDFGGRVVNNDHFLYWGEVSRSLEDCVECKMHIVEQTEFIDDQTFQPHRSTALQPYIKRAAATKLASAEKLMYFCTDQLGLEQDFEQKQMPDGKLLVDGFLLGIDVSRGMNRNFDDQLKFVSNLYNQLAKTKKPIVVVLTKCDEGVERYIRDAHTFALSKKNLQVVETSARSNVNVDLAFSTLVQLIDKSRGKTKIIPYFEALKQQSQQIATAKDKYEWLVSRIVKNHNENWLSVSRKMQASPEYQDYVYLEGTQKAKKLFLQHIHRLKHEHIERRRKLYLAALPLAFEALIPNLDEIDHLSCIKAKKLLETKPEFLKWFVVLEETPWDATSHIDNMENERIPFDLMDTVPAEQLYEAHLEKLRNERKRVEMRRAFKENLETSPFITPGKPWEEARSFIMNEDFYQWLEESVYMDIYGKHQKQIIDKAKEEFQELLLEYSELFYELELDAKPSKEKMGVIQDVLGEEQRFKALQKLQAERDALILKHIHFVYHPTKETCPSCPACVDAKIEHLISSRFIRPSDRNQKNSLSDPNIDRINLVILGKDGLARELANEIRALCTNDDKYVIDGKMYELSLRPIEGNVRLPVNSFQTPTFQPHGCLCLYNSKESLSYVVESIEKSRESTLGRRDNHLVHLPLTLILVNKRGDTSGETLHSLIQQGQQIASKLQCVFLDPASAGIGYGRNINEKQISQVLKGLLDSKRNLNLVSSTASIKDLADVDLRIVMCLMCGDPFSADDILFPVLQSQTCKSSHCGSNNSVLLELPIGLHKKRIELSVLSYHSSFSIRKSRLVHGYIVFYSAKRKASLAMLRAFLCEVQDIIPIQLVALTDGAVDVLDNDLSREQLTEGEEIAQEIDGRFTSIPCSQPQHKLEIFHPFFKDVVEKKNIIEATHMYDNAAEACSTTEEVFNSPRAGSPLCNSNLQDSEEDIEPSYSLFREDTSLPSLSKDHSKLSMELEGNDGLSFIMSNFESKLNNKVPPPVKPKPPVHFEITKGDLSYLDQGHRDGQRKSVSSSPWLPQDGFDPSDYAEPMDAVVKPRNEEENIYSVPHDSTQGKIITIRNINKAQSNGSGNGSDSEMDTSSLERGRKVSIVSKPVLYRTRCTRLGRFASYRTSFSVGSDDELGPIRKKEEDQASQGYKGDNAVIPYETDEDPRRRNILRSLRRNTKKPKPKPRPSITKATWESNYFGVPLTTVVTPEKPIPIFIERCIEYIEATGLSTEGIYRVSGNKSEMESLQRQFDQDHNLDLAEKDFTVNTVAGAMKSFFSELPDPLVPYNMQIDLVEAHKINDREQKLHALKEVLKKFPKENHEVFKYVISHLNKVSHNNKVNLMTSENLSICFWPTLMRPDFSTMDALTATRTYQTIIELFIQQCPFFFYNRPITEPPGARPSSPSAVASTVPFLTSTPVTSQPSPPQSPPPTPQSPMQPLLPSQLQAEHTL
The test is described as above.

B1: human GFP-p190A (protein, UniProt Q9NRY4 1-1499)
chain: T2 sequence
B1: the binding entry with human Fuzzy-FLAG (human) was “binds”.

B2: human Fuzzy-FLAG (protein, UniProt Q9BT04 1-418)
chain: T1 sequence
Turning to B2, the binding result with human GFP-p190A (human) was “binds”.
